Data as given in US10774143 (LA JOLLA INSTITUTE FOR ALLERGY AND IMMUNOLOGY, dated 2020).
Results are given in words; binding and its absence hold for the method and conditions named. For some of these results: In cells and extracts the contact can be indirect. Some results given as binding are weak or reduced against the parent protein; the word gives no strength.

Amino acid sequences for entries named in this document (tags omitted). A change or cut given only in a name is not applied to a line headed by its entry.
UniProt Q14643: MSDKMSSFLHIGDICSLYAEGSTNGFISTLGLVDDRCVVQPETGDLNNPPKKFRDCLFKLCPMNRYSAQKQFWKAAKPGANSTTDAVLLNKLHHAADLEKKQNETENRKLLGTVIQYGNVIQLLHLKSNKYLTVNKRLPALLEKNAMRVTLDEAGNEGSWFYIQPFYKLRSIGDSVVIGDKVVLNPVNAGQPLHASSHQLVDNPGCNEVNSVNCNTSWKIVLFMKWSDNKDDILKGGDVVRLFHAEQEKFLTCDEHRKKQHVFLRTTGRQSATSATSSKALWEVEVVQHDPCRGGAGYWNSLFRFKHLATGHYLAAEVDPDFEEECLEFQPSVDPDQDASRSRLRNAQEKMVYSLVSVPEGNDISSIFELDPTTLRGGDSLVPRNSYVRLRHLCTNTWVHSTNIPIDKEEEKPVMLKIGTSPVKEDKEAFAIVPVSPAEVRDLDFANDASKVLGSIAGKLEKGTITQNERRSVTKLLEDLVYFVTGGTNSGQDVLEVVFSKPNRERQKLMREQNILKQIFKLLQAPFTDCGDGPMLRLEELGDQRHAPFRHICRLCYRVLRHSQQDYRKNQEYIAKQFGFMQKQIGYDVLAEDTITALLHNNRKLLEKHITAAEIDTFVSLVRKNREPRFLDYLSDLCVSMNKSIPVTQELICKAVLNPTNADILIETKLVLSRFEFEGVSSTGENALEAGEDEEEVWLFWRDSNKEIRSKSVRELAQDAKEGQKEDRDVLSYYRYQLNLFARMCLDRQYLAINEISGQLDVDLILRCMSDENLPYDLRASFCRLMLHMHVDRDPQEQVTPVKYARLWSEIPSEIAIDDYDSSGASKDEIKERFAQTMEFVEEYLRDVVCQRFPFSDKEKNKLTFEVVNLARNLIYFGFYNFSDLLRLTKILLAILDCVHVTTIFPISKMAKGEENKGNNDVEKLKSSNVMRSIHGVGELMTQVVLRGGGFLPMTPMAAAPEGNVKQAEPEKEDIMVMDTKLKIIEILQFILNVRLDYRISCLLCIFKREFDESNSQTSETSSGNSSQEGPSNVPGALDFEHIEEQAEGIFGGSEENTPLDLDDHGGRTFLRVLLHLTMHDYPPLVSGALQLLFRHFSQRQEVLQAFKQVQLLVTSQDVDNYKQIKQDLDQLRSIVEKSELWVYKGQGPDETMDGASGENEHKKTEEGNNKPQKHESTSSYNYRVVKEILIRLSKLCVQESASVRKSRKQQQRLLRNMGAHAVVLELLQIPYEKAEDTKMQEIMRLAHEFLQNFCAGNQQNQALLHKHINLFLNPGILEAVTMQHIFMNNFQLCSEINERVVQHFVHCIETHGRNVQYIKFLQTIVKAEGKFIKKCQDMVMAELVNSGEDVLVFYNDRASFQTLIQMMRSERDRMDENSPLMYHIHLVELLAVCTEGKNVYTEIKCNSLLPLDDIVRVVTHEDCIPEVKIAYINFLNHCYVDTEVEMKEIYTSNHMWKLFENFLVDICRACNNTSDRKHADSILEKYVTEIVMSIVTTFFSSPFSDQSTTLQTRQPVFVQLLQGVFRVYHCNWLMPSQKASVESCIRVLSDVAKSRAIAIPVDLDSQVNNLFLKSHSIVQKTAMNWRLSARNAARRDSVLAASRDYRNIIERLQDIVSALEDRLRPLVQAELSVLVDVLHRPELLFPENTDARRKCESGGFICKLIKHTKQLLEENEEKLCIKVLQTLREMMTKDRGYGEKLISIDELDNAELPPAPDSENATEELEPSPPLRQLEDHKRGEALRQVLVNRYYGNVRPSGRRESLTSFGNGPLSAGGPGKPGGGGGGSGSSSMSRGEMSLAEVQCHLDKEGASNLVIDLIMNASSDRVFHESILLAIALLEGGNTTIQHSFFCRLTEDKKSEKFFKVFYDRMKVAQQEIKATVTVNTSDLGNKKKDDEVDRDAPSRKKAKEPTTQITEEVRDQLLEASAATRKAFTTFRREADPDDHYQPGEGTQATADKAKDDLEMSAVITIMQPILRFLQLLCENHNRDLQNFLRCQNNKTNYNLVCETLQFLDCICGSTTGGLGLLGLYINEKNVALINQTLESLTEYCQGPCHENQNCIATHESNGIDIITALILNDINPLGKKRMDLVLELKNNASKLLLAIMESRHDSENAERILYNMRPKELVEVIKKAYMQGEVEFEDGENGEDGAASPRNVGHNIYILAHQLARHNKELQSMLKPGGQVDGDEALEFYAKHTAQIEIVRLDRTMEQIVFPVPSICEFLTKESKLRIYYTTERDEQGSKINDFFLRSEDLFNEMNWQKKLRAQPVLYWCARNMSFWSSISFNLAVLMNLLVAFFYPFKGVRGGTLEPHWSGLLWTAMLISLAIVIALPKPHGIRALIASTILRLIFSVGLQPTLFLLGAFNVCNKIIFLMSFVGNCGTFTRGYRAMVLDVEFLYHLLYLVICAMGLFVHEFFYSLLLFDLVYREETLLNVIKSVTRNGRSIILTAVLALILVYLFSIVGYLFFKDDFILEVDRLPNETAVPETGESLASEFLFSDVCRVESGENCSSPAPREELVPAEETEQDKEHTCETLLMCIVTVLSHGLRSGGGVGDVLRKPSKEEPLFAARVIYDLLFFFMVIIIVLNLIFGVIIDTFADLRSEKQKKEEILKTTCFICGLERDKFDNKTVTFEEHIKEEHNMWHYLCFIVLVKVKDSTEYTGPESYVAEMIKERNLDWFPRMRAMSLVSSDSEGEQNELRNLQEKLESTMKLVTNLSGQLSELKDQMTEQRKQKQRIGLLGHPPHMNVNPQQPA
UniProt P11881: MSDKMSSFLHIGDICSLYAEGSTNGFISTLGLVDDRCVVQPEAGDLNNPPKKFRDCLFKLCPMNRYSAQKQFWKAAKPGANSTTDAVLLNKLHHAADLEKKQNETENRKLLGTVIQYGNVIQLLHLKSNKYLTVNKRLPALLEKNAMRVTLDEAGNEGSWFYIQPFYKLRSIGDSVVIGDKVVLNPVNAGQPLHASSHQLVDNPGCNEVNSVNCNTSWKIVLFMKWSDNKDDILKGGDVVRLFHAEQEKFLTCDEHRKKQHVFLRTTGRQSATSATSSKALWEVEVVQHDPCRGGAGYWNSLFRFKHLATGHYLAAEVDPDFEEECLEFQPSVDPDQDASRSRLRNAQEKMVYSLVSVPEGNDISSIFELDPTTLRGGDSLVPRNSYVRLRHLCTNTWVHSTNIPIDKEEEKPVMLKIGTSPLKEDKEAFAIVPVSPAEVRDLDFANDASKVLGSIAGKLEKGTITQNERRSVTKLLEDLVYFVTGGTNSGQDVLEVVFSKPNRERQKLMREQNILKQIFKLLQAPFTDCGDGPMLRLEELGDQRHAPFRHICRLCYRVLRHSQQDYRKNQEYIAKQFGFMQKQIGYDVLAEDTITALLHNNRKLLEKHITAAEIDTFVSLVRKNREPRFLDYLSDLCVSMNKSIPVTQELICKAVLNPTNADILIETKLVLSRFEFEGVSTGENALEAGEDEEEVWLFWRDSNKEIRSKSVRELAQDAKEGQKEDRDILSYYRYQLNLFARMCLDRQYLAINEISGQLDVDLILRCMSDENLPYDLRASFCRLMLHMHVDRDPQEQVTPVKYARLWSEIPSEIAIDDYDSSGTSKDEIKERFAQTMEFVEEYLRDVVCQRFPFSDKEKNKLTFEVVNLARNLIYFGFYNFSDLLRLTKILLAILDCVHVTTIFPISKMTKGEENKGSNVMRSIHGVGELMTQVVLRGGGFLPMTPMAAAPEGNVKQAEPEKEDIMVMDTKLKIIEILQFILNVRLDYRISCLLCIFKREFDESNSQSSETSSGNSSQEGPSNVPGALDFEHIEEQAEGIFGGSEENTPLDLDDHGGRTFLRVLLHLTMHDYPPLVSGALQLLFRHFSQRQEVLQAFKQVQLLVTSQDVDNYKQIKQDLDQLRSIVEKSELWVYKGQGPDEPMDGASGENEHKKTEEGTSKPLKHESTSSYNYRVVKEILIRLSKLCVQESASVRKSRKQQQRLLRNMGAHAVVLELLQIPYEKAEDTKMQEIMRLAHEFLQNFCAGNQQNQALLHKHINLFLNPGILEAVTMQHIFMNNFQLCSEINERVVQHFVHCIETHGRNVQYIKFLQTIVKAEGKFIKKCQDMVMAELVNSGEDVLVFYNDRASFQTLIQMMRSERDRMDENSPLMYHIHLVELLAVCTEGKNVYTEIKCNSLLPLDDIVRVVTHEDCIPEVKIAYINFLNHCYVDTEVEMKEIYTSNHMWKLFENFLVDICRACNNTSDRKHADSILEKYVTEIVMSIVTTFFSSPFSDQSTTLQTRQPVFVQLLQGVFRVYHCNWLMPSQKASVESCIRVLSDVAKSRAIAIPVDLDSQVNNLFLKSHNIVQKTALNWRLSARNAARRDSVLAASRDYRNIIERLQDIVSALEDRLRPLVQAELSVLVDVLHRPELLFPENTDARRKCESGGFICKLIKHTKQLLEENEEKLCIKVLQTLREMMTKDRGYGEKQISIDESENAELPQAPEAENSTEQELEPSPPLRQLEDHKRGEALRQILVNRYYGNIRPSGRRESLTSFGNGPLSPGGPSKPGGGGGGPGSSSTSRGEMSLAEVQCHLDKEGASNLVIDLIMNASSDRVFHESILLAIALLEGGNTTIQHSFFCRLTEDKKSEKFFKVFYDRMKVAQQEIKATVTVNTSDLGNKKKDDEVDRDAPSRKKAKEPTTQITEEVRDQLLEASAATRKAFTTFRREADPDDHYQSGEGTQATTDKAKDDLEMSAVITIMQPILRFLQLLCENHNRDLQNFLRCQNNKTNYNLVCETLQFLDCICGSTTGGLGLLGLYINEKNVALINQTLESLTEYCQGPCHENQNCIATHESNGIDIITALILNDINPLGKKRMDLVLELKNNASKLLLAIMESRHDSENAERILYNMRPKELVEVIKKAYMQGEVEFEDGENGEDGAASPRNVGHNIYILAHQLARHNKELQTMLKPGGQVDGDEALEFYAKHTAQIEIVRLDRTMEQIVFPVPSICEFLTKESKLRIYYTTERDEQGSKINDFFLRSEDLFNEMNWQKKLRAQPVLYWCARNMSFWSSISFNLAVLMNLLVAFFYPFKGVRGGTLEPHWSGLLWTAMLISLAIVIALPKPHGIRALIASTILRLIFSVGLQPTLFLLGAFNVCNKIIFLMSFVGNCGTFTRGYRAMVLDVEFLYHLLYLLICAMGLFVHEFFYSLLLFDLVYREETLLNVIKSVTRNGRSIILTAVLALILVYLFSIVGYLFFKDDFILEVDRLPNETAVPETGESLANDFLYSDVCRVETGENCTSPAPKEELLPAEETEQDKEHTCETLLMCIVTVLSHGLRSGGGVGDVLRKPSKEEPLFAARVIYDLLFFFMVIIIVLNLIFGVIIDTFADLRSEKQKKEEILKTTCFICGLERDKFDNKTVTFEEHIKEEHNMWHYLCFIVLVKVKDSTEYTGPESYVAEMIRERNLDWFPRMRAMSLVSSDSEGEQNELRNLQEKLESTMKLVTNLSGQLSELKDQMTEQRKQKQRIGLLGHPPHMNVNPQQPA
UniProt Q8C2K1: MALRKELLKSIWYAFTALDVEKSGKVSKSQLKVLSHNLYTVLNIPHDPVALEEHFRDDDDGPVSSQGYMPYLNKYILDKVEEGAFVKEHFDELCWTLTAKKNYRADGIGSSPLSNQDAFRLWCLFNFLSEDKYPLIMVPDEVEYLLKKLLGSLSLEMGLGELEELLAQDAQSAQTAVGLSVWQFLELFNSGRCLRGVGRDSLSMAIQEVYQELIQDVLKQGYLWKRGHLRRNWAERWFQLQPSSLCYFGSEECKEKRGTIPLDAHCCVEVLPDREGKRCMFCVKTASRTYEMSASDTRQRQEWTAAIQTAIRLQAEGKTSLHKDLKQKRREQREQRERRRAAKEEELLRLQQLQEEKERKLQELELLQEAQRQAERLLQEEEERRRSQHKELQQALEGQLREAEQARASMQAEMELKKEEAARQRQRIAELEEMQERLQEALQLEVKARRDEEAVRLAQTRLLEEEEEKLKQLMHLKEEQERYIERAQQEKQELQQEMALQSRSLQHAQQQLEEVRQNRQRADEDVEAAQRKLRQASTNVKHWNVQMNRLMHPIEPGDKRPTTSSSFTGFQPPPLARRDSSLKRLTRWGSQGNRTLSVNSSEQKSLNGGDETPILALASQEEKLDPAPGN

How the values were obtained:
[1] = target: Flag-tagged IP3R1-f2.1 (residues 346-490) (Homo sapiens (Human)) (UniProt Q14643); test: co-IP from Jurkat-TAg cells cotransfected with Flag-IP3R1-f2.1
[2] = target: inositol triphosphate receptor type I (IP3R1), endogenous mouse protein (mouse) (UniProt P11881); test: SLAT IP and anti-IP3R1 immunoblot
[3] = target: GST-IP3R1-f2.1 fusion protein (IP3R1 residues 346-490) (Homo sapiens (Human)) (UniProt Q14643); test: GST pull-down from lysates of stimulated MCC-T cells
[4] = target: GST-IP3R1-f.A fusion protein (IP3R1 residues 346-441; printed as 366-441 in Example 2) (Homo sapiens (Human)) (UniProt Q14643); test: as above
[5] = target: inositol triphosphate receptor type I (IP3R1), endogenous mouse protein (mouse) (UniProt P11881); test: co-IP from anti-CD3/CD28-stimulated CD4+ T cells; close proximity also shown by Duolink proximity ligation assay
[6] = target: GST-IP3R1-f.A fusion protein (IP3R1 residues 346-441; printed as 366-441 in Example 2) (Homo sapiens (Human)) (UniProt Q14643); test: GST pull-down from T cell lysates
[7] = target: inositol triphosphate receptor type I (IP3R1), endogenous mouse protein (mouse) (UniProt P11881); test: co-IP and proximity ligation, closing sentence of Example 1

Measured: binding

Myc-tagged SLAT PH domain (from UniProt Q9H4E7 217-312)
binds: [1]

SWAP-70-like adaptor of T cells (SLAT), endogenous mouse protein (from UniProt Q8C2K1 1-630)
not listed: [1]
binds: all other assays above
